These results are taken from patent publication US20060073146A1.

This assay has as its target TALL-1, membrane form on transfected COS 7 cells (chimeric ligand: TNF-alpha intracellular and transmembrane regions, TALL-1 extracellular region aa 75-285) (human) (UniProt P01375). Nature of the assay: Fc fusion on ligand-transfected COS 7 cells, Cy3 staining.

Results are given in words; binding and its absence hold for the method and conditions named. Some binding calls cover weakened binding; strength is not graded here. Where a sequence is shown, tags or fusion partners need not be part of it.

B1: TACI-ECD.hFc immunoadhesin (amino acids 2-166 of human TACI fused to human IgG1 Fc) (Fc fusion, not shown: a dimerising Fc or GST)
chain: SGLGRSRRGGRSRVDQEERFPQGLWTGVAMRSCPEEQYWDPLLGTCMSCKTICNHQSQRTCAAFCRSLSCRKEQGKFYDHLLRDCISCASICGQHPKQCAYFCENKLRSPVNLPPELRRQRSGEVENNSDNSGRYQGLEHRGSEASPALPGLKLSADQVALVYST
Turning to B1, the binding entry is on record as “binds”.
